The results in this text go back to article PMC12255121.

By UniProt entry, the sequences of proteins in these tests, tags left out.
UniProt P08962: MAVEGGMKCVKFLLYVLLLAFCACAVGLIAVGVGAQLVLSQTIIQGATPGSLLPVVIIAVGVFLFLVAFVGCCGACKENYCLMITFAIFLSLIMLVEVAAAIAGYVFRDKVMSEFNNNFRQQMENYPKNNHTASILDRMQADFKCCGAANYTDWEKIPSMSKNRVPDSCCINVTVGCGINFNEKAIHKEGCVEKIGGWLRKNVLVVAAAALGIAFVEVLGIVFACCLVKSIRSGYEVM

Test [1] has as its target T1, hOCT3-Cub-PLV (human organic cation transporter 3 fused to the C-terminal half of ubiquitin and protA-LexA-VP16) (human) (UniProt O75751).
T1 sequence: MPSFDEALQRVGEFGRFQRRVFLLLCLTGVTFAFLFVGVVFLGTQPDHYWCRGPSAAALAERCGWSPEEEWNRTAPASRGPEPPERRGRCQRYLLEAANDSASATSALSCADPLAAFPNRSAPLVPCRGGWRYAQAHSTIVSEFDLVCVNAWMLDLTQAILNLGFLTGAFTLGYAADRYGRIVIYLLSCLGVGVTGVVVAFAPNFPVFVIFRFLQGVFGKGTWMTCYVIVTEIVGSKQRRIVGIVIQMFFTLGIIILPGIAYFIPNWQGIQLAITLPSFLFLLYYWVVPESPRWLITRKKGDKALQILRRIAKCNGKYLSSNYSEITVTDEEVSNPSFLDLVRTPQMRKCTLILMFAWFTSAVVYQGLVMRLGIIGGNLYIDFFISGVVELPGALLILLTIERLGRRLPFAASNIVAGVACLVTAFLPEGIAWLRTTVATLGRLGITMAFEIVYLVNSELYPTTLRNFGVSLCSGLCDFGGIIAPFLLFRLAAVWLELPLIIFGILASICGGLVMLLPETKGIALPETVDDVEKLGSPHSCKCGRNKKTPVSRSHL
Nature of the test: two-hybrid; mating-based split ubiquitin system (mbSUS) in yeast; bait hOCT3-Cub-PLV in THY.AP4 mated with prey Nub fusion in THY.AP5; growth on medium lacking Leu, Trp, Ade and His.

In test [2] the target is His-tagged CD63 (CD63 in the pcDNA6.F9 vector containing a FLAG and 6xHis-Tag) (UniProt P08962). In words: pull-down; lysate of CD63-transfected HEK293 cells immobilized on Talon Sepharose beads via 6xHis tag, exposed 2 h to total lysates of HEK293 cells stably expressing hOCT3; lysis buffer with 1% Triton X-100; five washes (50 mM Na3PO4, 30 mM NaCl, 4 mM imidazole); elution with 150 mM imidazole; Western blot with anti-hOCT3. For orientation: A western blot detects proteins with antibodies after separation by electrophoresis.

No constants are given. Whether binding was seen depends on the method and setting. For some assays here: In cells and extracts the contact can be indirect. Some entries that bind do so weakly or less than the wild type. For some assays here: Tags and fused reporters may be left off the sequences shown.

“NubG-CD63 (tetraspanin CD63 fused to the N-terminal half of ubiquitin) (from UniProt P08962 1-238)”: the binding result in test [1] is listed as “binds”.

B1: human organic cation transporter 3 (hOCT3), stably expressed in HEK293 cells (protein, UniProt O75751 1-556)
chain: T1 sequence
Regarding B1, in test [2], the binding result is “binds”.
